For one molecule, binding results are on record in patent US20190041390A1.

No constants are given. Whether binding was seen depends on the method and setting. Some entries that bind do so weakly or less than the wild type.

This assay deals with synthetic rVλ6Wil fibrils (human). The assay can be described thus: solution-phase pulldown, 125I-labelled protein, 1 h, 3 h, 24 h.

B1: rVλ6Wil monomer (recombinant λ6 light chain variable domain from patient Wil) (protein)
VL: NFLLTQPHSVSESPGKTVTISCTRSSGSIANNYVHWYQQRPGSSPTTVIFEDDHRPSGVPDRFSGSVDTSSNSASLTISGLKTEDEADYYCQSYDHNNQVFGGGTKLTVLG
On to B1, for which the binding result is recorded as “binds”.
